According to patent publication US20160031996A1 (CSL, published 2016):
No constants are given. Whether binding was seen depends on the method and setting. Some binding calls cover weakened binding; strength is not graded here.

Assays:
[1] = molecular target: T1, chimera of human IL-3Rα residues 1-204 with GM-CSFRα domains (human) (UniProt P15509); test: flow cytometry, transfected 293F cells
T1 sequence: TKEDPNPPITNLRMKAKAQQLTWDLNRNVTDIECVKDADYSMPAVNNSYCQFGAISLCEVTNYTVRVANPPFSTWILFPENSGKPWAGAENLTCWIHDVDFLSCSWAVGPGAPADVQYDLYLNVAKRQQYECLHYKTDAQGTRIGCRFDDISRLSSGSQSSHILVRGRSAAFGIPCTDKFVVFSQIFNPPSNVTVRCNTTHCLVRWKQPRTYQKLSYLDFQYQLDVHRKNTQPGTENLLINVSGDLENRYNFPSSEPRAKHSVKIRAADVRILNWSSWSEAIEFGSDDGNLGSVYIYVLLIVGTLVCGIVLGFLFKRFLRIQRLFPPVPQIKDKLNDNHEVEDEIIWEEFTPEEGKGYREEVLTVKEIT

[2] = molecular target: T2, chimera of human IL-3Rα residues 1-100 with GM-CSFRα domains (human) (UniProt P15509); test: flow cytometry, transfected 293F cells
T2 sequence: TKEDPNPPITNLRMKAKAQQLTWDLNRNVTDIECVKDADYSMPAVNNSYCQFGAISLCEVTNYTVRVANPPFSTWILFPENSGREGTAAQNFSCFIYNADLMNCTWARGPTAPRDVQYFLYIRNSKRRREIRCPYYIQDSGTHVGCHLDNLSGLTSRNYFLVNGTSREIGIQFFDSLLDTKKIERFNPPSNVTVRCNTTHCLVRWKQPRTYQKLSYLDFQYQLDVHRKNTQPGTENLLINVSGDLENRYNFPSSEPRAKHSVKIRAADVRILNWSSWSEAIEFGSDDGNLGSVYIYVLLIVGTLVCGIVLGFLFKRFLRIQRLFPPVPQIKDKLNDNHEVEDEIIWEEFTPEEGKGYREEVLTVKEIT

B1: monoclonal antibody 7G3 (antibody, V domains shown)
VH: EVQLQQSGPELVKPGASVKMSCKASGYTFTDYYMKWVKQSHGKSLEWIGDIIPSNGATFYNQKFKGKATLTVDRSSSTAYMHLNSLTSEDSAVYYCTRSHLLRASWFAYWGQGTLVTVSA
VL: DFVMTQSPSSLTVTAGEKVTMSCKSSQSLLNSGNQKNYLTWYLQKPGQPPKLLIYWASTRESGVPDRFTGSGSGTDFTLTISSVQAEDLAVYYCQNDYSYPYTFGGGTKLEIKR
notes: mouse monoclonal antibody (hybridoma ATCC HB-12009)
[1]
  binding: binds
[2]
  binding: binds
